Results on one molecule are retold here after patent publication US20240132883A1, “RNA-TRIGGERED PROTEIN CLEAVAGE AND APPLICATIONS BY THE CRISPR CAS7-11-CSX29 COMPLEX” (Massachusetts Institute of Technology, published 2024).

The target of assay [1] is catalytically inactive D. ishimotonii Cas7-11 mutant (D429A/D654A), expressed as MBP-Cas7-11-His6 (Desulfonema ishimotonii). The assay can be described thus: cryo-EM structure of Cas7-11-crRNA-Csx29.
Assay [2] has the same target. Nature of the assay: cryo-EM structures of Cas7-11-crRNA-Csx29 with and without target RNA.

These are yes or no findings as the source states them, for the method shown. Some results given as binding are weak or reduced against the parent protein; the word gives no strength. Where a sequence is shown, tags or fusion partners need not be part of it.

B1: D. ishimotonii Csx29, expressed as His6-Twin-Strep-SUMO-Csx29 (enzyme, not shown: large carriers)
chain: HHHHHHMSNPIRDIQDRLKTAKFDNKDDMMNLASSLYKYEKQLMDSSEATLCQQGLSNRPNSFSQLSQFRDSDIQSKAGGQTGKFWQNEYEACKNFQTHKERRETLEQIIRFLQNGAEEKDADDLLLKTLARAYFHRGLLYRPKGFSVPARKVEAMKKAIAYCEIILDKNEEESEALRIWLYAAMELRRCGEEYPENFAEKLFYLANDGFISELYDIRLFLEYTEREEDNNFLDMILQENQDRERLFELCLYKARACFHLNQLNDVRIYGESAIDNAPGAFADPFWDELVEFIRMLRNKKSELWKEIAIKAWDKCREKEMKVGNNIYLSWYWARQRELYDLAFMAQDGIEKKTRIADSLKSRTTLRIQELNELRKDAHRKQNRRLEDKLDRIIEQENEARDGAYLRRNPPCFTGGKREEIPFARLPQNWIAVHFYLNELESHEGGKGGHALIYDPQKAEKDQWQDKSFDYKELHRKFLEWQENYILNEEGSADFLVTLCREIEKAMPFLFKSEVIPEDRPVLWIPHGFLHRLPLHAAMKSGNNSNIEIFWERHASRYLPAWHLFDPAPYSREESSTLLKNFEEYDFQNLENGEIEVYAPSSPKKVKEAIRENPAILLLLCHGEADMTNPFRSCLKLKNKDMTIFDLLTVEDVRLSGSRILLGACESDMVPPLEFSVDEHLSVSGAFLSHKAGEIVAGLWTVDSEKVDECYSYLVEEKDFLRNLQEWQMAETENFRSENDSSLFYKIAPFRIIGFPAE
As for B1, the binding entry in assay [1] and in assay [2] was “binds” each time.
